Results are given in words; binding and its absence hold for the method and conditions named. Binding seen in cells or lysates may run through a third protein. A yes stands for co-enrichment or nearness to the bait. Other partners may have been found. Sequences can lack the tags named with a protein.
Biological target: T1, Elongin A (ELOA), Flag-tagged (UniProt Q14241)
T1 sequence: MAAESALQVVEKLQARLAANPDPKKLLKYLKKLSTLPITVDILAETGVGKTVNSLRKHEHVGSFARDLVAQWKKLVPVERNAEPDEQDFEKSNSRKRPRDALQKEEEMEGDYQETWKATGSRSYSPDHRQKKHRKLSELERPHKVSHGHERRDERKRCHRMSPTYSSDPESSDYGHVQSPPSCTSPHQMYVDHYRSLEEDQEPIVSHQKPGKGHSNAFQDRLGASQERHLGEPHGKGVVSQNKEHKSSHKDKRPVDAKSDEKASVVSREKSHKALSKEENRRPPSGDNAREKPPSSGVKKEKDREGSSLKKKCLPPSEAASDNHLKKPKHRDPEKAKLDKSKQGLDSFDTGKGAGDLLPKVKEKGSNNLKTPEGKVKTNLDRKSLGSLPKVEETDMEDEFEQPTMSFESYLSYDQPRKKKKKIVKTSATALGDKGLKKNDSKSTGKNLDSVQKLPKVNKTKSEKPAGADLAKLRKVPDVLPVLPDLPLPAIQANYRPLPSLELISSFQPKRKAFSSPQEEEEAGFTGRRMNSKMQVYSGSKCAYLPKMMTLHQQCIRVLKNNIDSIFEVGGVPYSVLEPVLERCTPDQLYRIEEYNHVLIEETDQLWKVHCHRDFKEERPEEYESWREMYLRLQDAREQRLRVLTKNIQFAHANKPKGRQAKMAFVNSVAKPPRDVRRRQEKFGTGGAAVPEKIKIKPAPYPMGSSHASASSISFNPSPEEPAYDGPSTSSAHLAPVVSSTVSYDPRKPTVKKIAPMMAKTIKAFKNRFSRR
Experiment: affinity purification with mass spectrometry; ELOA-Flag immunoprecipitation, SDS-PAGE with silver staining, mass spectrometry; screen for E3 ligases

Protein sequences, listed by entry. Tags and fused reporters are not part of them.
UniProt P19474: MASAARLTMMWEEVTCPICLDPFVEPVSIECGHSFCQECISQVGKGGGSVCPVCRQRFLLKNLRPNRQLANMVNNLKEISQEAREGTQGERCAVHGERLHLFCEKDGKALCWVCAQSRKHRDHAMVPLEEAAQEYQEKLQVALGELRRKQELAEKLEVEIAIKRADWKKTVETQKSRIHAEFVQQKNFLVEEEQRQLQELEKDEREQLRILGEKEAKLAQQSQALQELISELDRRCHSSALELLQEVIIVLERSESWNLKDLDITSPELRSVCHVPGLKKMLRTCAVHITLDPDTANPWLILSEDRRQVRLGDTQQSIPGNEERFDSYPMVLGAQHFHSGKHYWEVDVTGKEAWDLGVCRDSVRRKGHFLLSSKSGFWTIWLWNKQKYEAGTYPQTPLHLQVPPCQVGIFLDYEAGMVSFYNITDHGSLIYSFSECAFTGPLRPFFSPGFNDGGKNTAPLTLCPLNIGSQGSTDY

- binding: binds
Substance: tripartite motif containing 21 (Trim21), endogenous (from UniProt P19474 1-475)

Source: PMC9664729
